Publication PMC7736850, “Hemistepsin A suppresses colorectal cancer growth through inhibiting pyruvate dehydrogenase kinase activity” (Scientific Reports, 2020)
No constants are given. Whether binding was seen depends on the method and setting. Binding seen in cells or lysates may run through a third protein. Some entries that bind do so weakly or less than the wild type.

Amino acid sequences for entries named in this document (tags omitted). Residues count along the entry.
UniProt Q15118, residues 29-436: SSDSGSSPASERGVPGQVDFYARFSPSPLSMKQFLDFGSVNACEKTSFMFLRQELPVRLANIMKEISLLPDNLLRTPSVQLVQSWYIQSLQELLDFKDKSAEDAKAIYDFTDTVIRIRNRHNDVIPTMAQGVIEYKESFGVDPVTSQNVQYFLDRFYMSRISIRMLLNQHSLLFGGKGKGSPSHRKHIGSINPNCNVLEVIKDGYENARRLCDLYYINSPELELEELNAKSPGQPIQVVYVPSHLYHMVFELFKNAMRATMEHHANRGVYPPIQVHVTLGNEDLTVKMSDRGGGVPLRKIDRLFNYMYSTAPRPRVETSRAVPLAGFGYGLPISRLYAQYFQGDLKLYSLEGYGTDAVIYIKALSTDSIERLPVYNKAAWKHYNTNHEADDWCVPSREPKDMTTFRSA

Target: Glutathione S-transferase (GST) tagged-PDK1 (UniProt Q15118)
Assay: pull-down; GST-PDK1 expressed in HEK 293T cells (treated with 0 or 10 μM HsA for 12 h), pulled down on Glutathione Sepharose 4B beads, washed with 20 mM potassium phosphate pH 7; PDH-E2 and PDHA1 detected by Western blot

B1: E2 subunit of the pyruvate dehydrogenase complex (PDH-E2) (protein, UniProt P10515 87-647)
chain: SLPPHQKVPLPSLSPTMQAGTIARWEKKEGDKINEGDLIAEVETDKATVGFESLEECYMAKILVAEGTRDVPIGAIICITVGKPEDIEAFKNYTLDSSAAPTPQAAPAPTPAATASPPTPSAQAPGSSYPPHMQVLLPALSPTMTMGTVQRWEKKVGEKLSEGDLLAEIETDKATIGFEVQEEGYLAKILVPEGTRDVPLGTPLCIIVEKEADISAFADYRPTEVTDLKPQVPPPTPPPVAAVPPTPQPLAPTPSAPCPATPAGPKGRVFVSPLAKKLAVEKGIDLTQVKGTGPDGRITKKDIDSFVPSKVAPAPAAVVPPTGPGMAPVPTGVFTDIPISNIRRVIAQRLMQSKQTIPHYYLSIDVNMGEVLLVRKELNKILEGRSKISVNDFIIKASALACLKVPEANSSWMDTVIRQNHVVDVSVAVSTPAGLITPIVFNAHIKGVETIANDVVSLATKAREGKLQPHEFQGGTFTISNLGMFGIKNFSAIINPPQACILAIGASEDKLVPADNEKGFDVASMMSVTLSCDHRVVDGAVGAQWLAEFRKYLEKPITMLL
- binding: binds
